Measured values from PubChem BioAssay AID588590 (National Center for Advancing Translational Sciences (NCATS), 2011).
Screen size: about 390,000 compounds; about 4,000 (1%) were called active. Inconclusive means that the source gave no clear call. Such entries were picked first, then a sample of the others. Calls come from the whole dose curve; as a rule, active = well fitted inhibition curve with a large enough effect; inconclusive = small, poorly fitted or top-dose-only effect, or another doubt; inactive = no such curve, though single readings can be large or run the other way. Potencies beside an inconclusive call are fits to weak or partial responses and may not hold up.

Chains of the proteins cited; added tags and fusions are not shown. Lines headed by an entry give the natural chain unless they say otherwise; changes in a name come on top.
UniProt Q9UNA4: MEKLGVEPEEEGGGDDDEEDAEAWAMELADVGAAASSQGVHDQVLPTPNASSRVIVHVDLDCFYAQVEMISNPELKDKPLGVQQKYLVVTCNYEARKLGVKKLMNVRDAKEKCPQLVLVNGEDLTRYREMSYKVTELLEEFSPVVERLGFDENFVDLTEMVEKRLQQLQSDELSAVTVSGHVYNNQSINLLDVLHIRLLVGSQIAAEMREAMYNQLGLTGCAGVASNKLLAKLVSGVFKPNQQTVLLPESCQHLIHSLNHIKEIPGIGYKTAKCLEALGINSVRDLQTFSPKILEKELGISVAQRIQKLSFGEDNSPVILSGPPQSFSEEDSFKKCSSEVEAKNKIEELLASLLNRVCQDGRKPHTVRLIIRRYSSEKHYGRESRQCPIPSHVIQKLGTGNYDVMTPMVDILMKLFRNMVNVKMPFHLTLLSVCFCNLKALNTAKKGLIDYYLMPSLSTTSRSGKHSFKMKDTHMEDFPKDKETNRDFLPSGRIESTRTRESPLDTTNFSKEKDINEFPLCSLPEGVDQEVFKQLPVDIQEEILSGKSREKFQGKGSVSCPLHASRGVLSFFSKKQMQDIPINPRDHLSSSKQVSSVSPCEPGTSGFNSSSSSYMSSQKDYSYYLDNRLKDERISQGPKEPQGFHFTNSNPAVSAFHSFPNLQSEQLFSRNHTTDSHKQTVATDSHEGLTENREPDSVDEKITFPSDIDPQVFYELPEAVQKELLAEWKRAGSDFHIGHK

These molecules were tested against DNA polymerase iota (Homo sapiens) (UniProt Q9UNA4) (assay: qHTS for Inhibitors of Polymerase Iota). Details: Pol iota fluorescent replication assay, 10 min; series mostly up to 115 µM.
How it was run: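 Fluorescent replication assay read twice, at 0 min and 10 min after adding 50 nM (final) substrate. Enzyme (10 nM) and compounds were first incubated 15 min at room temperature; enzyme-free buffer wells were negative controls.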
Potency is the fitted concentration of half-maximal effect.

Compound | Potency
Cc1c(CC(=O)O)c(=O)oc2c(C)c(OCc3ccccc3Br)ccc12 | inconclusive: 39.8 µM [inhibitor, partial curve, poor fit]
CN(C)c1cc2c(cc1NC(=O)c1ccc(F)cc1)n(C)c(=O)n2C | inconclusive: 79.4 µM [inhibitor, partial curve, poor fit]
CCOc1ccccc1NC(=O)C(=O)CC(=O)c1cccc(OC)c1 | inconclusive: 3.55 µM [inhibitor, full curve]
CCCN1CCN(CCCNC(=O)CN2C(=O)c3cccnc3Oc3ccc(C)cc32)CC1 | inconclusive: 89.1 µM [inhibitor, single point]
O=c1[nH]c(N2CCOCC2)cc2ccccc12 | inconclusive: 22.4 µM [inhibitor, partial curve]
C=CCN(CC=C)Cc1c(O)ccc2c1oc(=O)c1ccccc12 | inconclusive: 11.2 µM [inhibitor, full curve, poor fit]
O=C(c1cccc2cccc(O)c12)N1CCCCC1 | inconclusive: 12.6 µM [inhibitor, single point]
Cc1ccc(C)n1-c1cccc(C(=O)Nc2ccccc2)c1 | inactive
C/C(CCc1ccco1)=N\NC(=O)CNc1cccc2ccccc12 | inconclusive: 3.55 µM [inhibitor, full curve, poor fit]
CCCCNS(=O)(=O)c1cc(-c2nn(C)c(=O)c3ccccc23)ccc1C | inconclusive: 63.1 µM [inhibitor, partial curve, poor fit]
O=C(Nc1ccc(O)cc1)/C(=C\C=C\c1ccccc1)NC(=O)c1ccccc1 | inactive
CCC(=O)c1ccc(OCc2cn(CC(=O)c3ccc(O)cc3)nn2)cc1 | inconclusive: 17.8 µM [inhibitor, single point]
Cc1cc(Br)c(NC(=O)CN2CCCC2)c(Br)c1 | inactive
O=C(N/N=C/c1ccc(OC(=O)c2ccccc2)cc1)c1cccnc1 | inconclusive: 25.1 µM [inhibitor, single point]
CC(=O)c1ccc(NC(=O)CSc2nnc(NC(=O)Nc3ccccc3)s2)cc1 | inconclusive: 100 µM [inhibitor, single point]
CC(C)c1ccc(OCC(O)CN2CCN(c3ccccn3)CC2)cc1 (stereo not given) | inconclusive: 15.8 µM [inhibitor, partial curve, poor fit]
C=CCNc1nc(C(=O)OCC(=O)Nc2ccc(S(N)(=O)=O)cc2)cs1 | active: 28.2 µM
O=c1cc[nH]c2c1ccc1c(=O)cc[nH]c12 | inconclusive: 12.6 µM [inhibitor, full curve, poor fit]

Compound | Potency
CC(=O)Nc1ccc(Nc2nc(C)nc3c2nnn3Cc2ccccc2Cl)cc1 | inconclusive: 79.4 µM [inhibitor, partial curve, poor fit]
O=C(NCc1ccco1)c1ccc2c(c1)S(=O)(=O)c1ccccc1C2=O | inconclusive: 31.6 µM [inhibitor, partial curve, poor fit]
Cc1ccc(C(C)C)c(OCCN)c1 | inconclusive: 79.4 µM [inhibitor, single point]
CCc1ccccc1NC(=O)c1sc2nc3n(c(=O)c2c1C)CCC3 | inactive
CCCCCCCCCC[n+]1ccc(/C=C/c2c(C)[nH]c3ccccc23)c2ccccc21 | inactive
CS(=O)(=O)c1ccc(NC(=O)CCN2C(=O)C3CCCCC3C2=O)cc1 (stereo not given) | inconclusive: 89.1 µM [inhibitor, single point]
Cc1c(Cl)c([N+](=O)[O-])nn1CCCC(=O)Nc1cccnc1 | inconclusive: 2.82 µM [inhibitor, full curve, poor fit]
Cc1n[nH]c(=S)n(NC(=O)/C=C/C(=O)Nn2c(=S)[nH]nc(C)c2=O)c1=O | inconclusive: 1.26 µM [inhibitor, full curve, poor fit]
CCOc1ccc(CNC(=O)CCCc2cn(C)c3ccccc23)cc1 | inactive
O=C(CSc1c(Cl)cccc1Cl)NC1CCCc2ccccc21 (stereo not given) | inconclusive: 56.2 µM [inhibitor, partial curve, poor fit]
Cn1c(/C(C#N)=C/C2CC=CCC2)nc2ccccc21 (stereo not given) | inconclusive: 70.8 µM [inhibitor, partial curve]
COc1ccccc1-n1c(-c2cccnc2)n[nH]c1=S | inconclusive: 79.4 µM [inhibitor, partial curve, poor fit]
O=C1COc2ccc(C(=O)COC(=O)c3ccc4ccccc4n3)cc2N1 | inconclusive: 17.8 µM [inhibitor, partial curve, poor fit]
COc1ccc(Cl)cc1C(=O)NNC(=O)c1cccc([N+](=O)[O-])c1 | inconclusive: 100 µM [inhibitor, single point]
Cc1cccc(OCc2nnc(SCc3nc4cc(C(F)(F)F)ccc4c(=O)[nH]3)o2)c1 | inconclusive: 112 µM [inhibitor, single point]
CC(=O)Oc1cc2c(C(=O)NCCCN3CCOCC3)c(C)oc2c2ccccc12 | inconclusive: 20 µM [inhibitor, partial curve]
C#CCOCCOCCOCCNc1nc(N2CCN(C(=O)CCCCCCCCCCNC(=O)Cn3cc(CCCCCN)nn3)CC2)nc(N2CCN(C(=O)CCCCCCCCCCNC(=O)[C@H](CO)n3cc(CCCCCN)nn3)CC2)n1 | inconclusive: 22.4 µM [inhibitor, single point]

Looked up by structure from the list above (2):
Compound | Potency
CCCCCCCCCC[n+]1ccc(/C=C/c2c(C)[nH]c3ccccc23)c2ccccc21 | inactive
Cc1n[nH]c(=S)n(NC(=O)/C=C/C(=O)Nn2c(=S)[nH]nc(C)c2=O)c1=O | inconclusive: 1.26 µM [inhibitor, full curve, poor fit]
